From paper PMC4429541
These are yes or no findings as the source states them, for the method shown. In cells and extracts the contact can be indirect. A result given as binding can be weak or reduced; the word gives no strength.

The chains behind the UniProt entries cited, without tags or fusion partners.
UniProt Q06945: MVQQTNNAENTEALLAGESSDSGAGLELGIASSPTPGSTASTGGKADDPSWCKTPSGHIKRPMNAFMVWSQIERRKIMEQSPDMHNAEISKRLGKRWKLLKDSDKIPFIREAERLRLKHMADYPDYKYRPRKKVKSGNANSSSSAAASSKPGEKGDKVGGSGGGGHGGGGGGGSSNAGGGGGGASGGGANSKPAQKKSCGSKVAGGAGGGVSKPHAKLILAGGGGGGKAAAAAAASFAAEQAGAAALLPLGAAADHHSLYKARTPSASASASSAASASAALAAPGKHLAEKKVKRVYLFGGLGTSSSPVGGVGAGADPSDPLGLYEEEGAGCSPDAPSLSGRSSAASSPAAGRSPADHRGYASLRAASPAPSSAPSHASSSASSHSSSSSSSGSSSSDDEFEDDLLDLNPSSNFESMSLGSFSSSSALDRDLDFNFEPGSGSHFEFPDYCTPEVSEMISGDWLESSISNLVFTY

Target: sex-determining region Y box 4 (Sox4) (UniProt Q06945)
Experiment: co-IP; HEK293T cells co-transfected with the indicated plasmids for 48 h, lysed in RIPA lysis buffer; supernatants incubated with the indicated antibodies overnight at 4 °C, protein G Sepharose beads 2 h at 4 °C; Western blotting

## HBV surface protein (HBsAg) (from UniProt P03138)
  binding: binds
